Values quoted from earlier work, collected in US20130302381A1, “Implantable Medical Devices Including a Water-Insoluble Therapeutic Agent” (Cook Medical Technologies LLC, priority 2012, published 2013).
Some results were stated once for a whole list of compounds, not compound by compound. At least one compound was matched to its structure with a doubt left.

Details: in water; each 'known to have'

For CO[C@H]1C[C@@H]2CC[C@@H](C)[C@@](O)(O2)C(=O)C(=O)N2CCCC[C@H]2C(=O)O[C@H]([C@H](C)C[C@@H]2CC[C@@H](OCCO)[C@H](OC)C2)CC(=O)[C@H](C)/C=C(\C)[C@@H](O)[C@@H](OC)C(=O)[C@H](C)C[C@H](C)/C=C/C=C/C=C/1C [everolimus], the water solubility is given as “less than 10 micrograms/ml”.

For CO[C@@H]1C[C@H](C[C@@H](C)[C@@H]2CC(=O)[C@H](C)/C=C(\C)[C@@H](O)[C@@H](OC)C(=O)[C@H](C)C[C@H](C)/C=C/C=C/C=C(\C)[C@@H](O)C[C@@H]3CC[C@@H](C)[C@@](O)(O3)C(=O)C(=O)N3CCCC[C@H]3C(=O)O2)CC[C@H]1O [novolimus], the water solubility is given as “less than 10 micrograms/ml”.

For CC[C@@H]1/C=C(\C)C[C@H](C)C[C@H](OC)[C@H]2O[C@@](O)(C(=O)C(=O)N3CCCC[C@H]3C(=O)O[C@H](/C(C)=C/[C@@H]3CC[C@H](Cl)[C@H](OC)C3)[C@H](C)[C@@H](O)CC1=O)[C@H](C)C[C@@H]2OC [pimecrolimus], the water solubility is listed as “less than 10 micrograms/ml”.

In the case of CO[C@H]1C[C@@H]2CC[C@@H](C)[C@@](O)(O2)C(=O)C(=O)N2CCCC[C@H]2C(=O)O[C@H]([C@H](C)C[C@@H]2CC[C@@H](O)[C@H](OC)C2)CC(=O)[C@H](C)/C=C(\C)[C@@H](O)[C@@H](OC)C(=O)[C@H](C)C[C@H](C)/C=C/C=C/C=C/1C [sirolimus], the water solubility is given as “less than 10 micrograms/ml”.

In the case of C=CC[C@@H]1/C=C(\C)C[C@H](C)C[C@H](OC)[C@H]2O[C@@](O)(C(=O)C(=O)N3CCCC[C@H]3C(=O)O[C@H](/C(C)=C/[C@@H]3CC[C@@H](O)[C@H](OC)C3)[C@H](C)[C@@H](O)CC1=O)[C@H](C)C[C@@H]2OC [tacrolimus], the water solubility is given as “less than 10 micrograms/ml”.

In the case of CO[C@H]1C[C@@H]2CC[C@@H](C)[C@@](O)(O2)C(=O)C(=O)N2CCCC[C@H]2C(=O)O[C@H]([C@H](C)C[C@@H]2CC[C@@H](OC(=O)C(C)(CO)CO)[C@H](OC)C2)CC(=O)[C@H](C)/C=C(\C)[C@@H](O)[C@@H](OC)C(=O)[C@H](C)C[C@H](C)/C=C/C=C/C=C/1C [temsirolimus], the water solubility is listed as “less than 10 micrograms/ml”.

In the case of CO[C@H]1C[C@@H]2CC[C@@H](C)[C@@](O)(O2)C(=O)C(=O)N2CCCC[C@H]2C(=O)O[C@H]([C@H](C)C[C@@H]2CC[C@H](n3cnnn3)[C@H](OC)C2)CC(=O)[C@H](C)/C=C(\C)[C@@H](O)[C@@H](OC)C(=O)[C@H](C)C[C@H](C)/C=C/C=C/C=C/1C [zotarolimus], the water solubility is given as “less than 10 micrograms/ml”.
